From paper PMC9763856

Target: GST-SMAD1 linker region
Test: pull-down; GST fusion proteins expressed by bacteria incubated with lysates of HEK293T cells transfected with Flag-TAPT1; only the target purified

B1: Flag-tagged TAPT1 (human Transmembrane anterior posterior transformation 1) (protein, UniProt Q6NXT6 1-567)
chain: MAGVGDAAAPGEGGGGGVDGPQRDGRGEAEQPGGSGGQGPPPAPQLTETLGFYESDRRRERRRGRTELSLLRFLSAELTRGYFLEHNEAKYTERRERVYTCLRIPRELEKLMVFGIFLCLDAFLYVFTLLPLRVFLALFRLLTLPCYGLRDRRLLQPAQVCDILKGVILVICYFMMHYVDYSMMYHLIRGQSVIKLYIIYNMLEVADRLFSSFGQDILDALYWTATEPKERKRAHIGVIPHFFMAVLYVFLHAILIMVQATTLNVAFNSHNKSLLTIMMSNNFVEIKGSVFKKFEKNNLFQMSNSDIKERFTNYVLLLIVCLRNMEQFSWNPDHLWVLFPDVCMVIASEIAVDIVKHAFITKFNDITADVYSEYRASLAFDLVSSRQKNAYTDYSDSVARRMGFIPLPLAVLLIRVVTSSIKVQGILSYACVILFYFGLISLKVLNSIVLLGKSCQYVKEAKMEEKLSNPPATCTPGKPSSKSQNKCKPSQGLSTEENLSASITKQPIHQKENIIPLLVTSNSDQFLTTPDGDEKDITQDNSELKHRSSKKDLLEIDRFTICGNRID
With B1 the binding was “no binding”.

Results are given in words; binding and its absence hold for the method and conditions named. Binding seen in cells or lysates may run through a third protein. Where a sequence is shown, tags or fusion partners need not be part of it.
